Where a SMILES comes first, the peptide text is derived from it. [ ]: non-standard residue; d: D form.
Assay: Isothermal titration calorimetry (ITC) of peptide binding to LTA-SA
Parameters: species or system S. aureus
Conditions: 200 μM peptide titrated into LTA-SA, 37° C.
Protocol: Thermodynamic binding capacity of 200 μM D-CATH2 (A), DC(1-21) (B), and DC(4-21) (C) to 200 μM LTA-SA was measured using isothermal titration calorimetry (ITC). Every 300 seconds, 1.99 μl peptide solution was titrated into 164 μl LTA solution. The corrected heat rate (μJ sec^−1) is plotted (top panel) and normalized integrated heat was plotted against the molar ratio between LTA and the peptide (lower panel). Experiments (N=3) were averaged before plotting and fitting an independent model. The corrected heat rate of D-CATH2, DC(1-21), and DC(4-21) is depicted for comparison (D).
The interaction between the D-CATH2 peptides and LTA-SA was tested using isothermal titration calorimetry (ITC). All ITC experiments were performed on a Low Volume NanoITC (TA instruments-Waters LLC, New Castle, USA). 800 μM of LTA-SA or peptide solution was prepared in MilliQ after which a 4-fold dilution in dPBS (Gibco) was made. The chamber was filled with 164 μl LTA-SA and the peptide was loaded in the syringe. Every 300 seconds, 1.99 μL peptide was titrated into the chamber at 37° C. Data was analyzed using the Nano Analyze software (TA instruments-Waters LLC). The data of three experiments was averaged and an independent model was used to determine the peptide-LTA interaction.

In the case of `CC[C@@H](C)[C@@H](NC(=O)[C@@H](CCCCN)NC(=O)[C@@H](CCCNC(=N)N)NC(=O)[C@@H](CC(C)C)NC(=O)[C@@H](Cc1ccccc1)NC(=O)[C@H](N)CCCNC(=N)N)C(=O)N[C@H](CCCNC(=N)N)C(=O)N[C@H](CCCNC(=N)N)C(=O)N[C@H](Cc1ccccc1)C(=O)N[C@H](CCCNC(=N)N)C(=O)N1CCC[C@@H]1C(=O)N[C@H](CCCCN)C(=O)N[C@@H](C(=O)N[C@@H](C(=O)N[C@@H](C(=O)N[C@@H](C(=O)N[C@@H](C(=O)N[C@H](CCC(N)=O)C(N)=O)[C@H](C)CC)[C@H](C)O)[C@H](C)CC)[C@H](C)O)C(C)C` [DC(4-21), RFLRKIRRFRPKVTITIQ-NH2] (H-[dR][dF][dL][dR][dK][dI][dR][dR][dF][dR][dP][dK][dV][dT][dI][dT][dI][dQ]-NH2; N-terminus assumed), the “ΔH (enthalpy changes)” value was -3.999 kcal/mol and the “ΔS (entropy changes)” value was 54.68 J/mol · K.
